In ChEMBL document CHEMBL4699667, “Discovery of the Potent, Selective, Orally Available CXCR7 Antagonist ACT-1004-1239” (J Med Chem, 2020):

Assay: physchem
Details: octanol/water, pH 7.4

SMILES | logD
O=C(NC1CCN(C2CCCCC2)CC1)c1nnc(-c2ccc(F)cc2F)o1 | 1.6
O=C(N[C@H]1CCN(C2CCCCC2)C[C@@H]1C(=O)NCCc1ccccn1)c1cc(-c2ccc(F)cc2F)on1 | 3.6
